The record followed here is US20180369334A1 (Stanford University, published 2018).

By UniProt entry, the sequences of proteins in these tests, tags left out. Residues count along the entry.
UniProt P17948, residues 27-1338: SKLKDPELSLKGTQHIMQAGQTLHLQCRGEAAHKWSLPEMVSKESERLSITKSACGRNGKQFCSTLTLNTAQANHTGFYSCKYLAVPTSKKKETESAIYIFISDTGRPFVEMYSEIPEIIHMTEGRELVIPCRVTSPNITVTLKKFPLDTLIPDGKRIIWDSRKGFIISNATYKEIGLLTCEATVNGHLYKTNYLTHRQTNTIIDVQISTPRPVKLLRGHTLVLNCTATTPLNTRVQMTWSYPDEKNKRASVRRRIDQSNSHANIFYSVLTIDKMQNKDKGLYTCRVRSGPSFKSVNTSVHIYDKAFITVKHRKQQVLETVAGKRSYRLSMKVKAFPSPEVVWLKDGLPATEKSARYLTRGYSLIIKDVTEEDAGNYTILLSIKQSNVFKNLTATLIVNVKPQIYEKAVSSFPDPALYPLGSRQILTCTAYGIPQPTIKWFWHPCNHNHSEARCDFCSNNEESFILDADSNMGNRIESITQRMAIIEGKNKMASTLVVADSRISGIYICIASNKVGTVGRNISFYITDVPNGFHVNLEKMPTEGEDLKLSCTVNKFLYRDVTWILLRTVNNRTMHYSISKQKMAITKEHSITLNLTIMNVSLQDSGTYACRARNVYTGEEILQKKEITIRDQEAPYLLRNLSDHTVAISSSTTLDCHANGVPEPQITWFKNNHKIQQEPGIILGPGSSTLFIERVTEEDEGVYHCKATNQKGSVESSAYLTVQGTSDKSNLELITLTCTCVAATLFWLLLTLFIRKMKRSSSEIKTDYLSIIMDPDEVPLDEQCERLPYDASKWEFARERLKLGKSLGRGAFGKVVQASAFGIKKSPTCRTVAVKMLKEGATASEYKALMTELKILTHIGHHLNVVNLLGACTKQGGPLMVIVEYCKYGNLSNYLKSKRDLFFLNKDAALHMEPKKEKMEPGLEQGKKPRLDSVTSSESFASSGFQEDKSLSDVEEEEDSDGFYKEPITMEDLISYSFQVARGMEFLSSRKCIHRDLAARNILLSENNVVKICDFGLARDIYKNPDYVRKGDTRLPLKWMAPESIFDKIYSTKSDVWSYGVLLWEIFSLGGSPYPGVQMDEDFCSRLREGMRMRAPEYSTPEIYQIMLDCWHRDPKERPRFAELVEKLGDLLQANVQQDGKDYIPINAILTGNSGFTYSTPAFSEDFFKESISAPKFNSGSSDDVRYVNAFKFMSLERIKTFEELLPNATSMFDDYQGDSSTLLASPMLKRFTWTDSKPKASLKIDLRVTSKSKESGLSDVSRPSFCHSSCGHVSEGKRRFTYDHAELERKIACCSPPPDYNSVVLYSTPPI

Results are given in words; binding and its absence hold for the method and conditions named. Some entries that bind do so weakly or less than the wild type.

The assay concerns the target VEGFR1 (on PAE-VEGFR1 cells) (UniProt P17948). Description: binding to PAE-VEGFR1 cells.

B1: scVEGFMUT-E (mE, SEQ ID NO.: 55) (ligand)
chain: EVVKAMDVYQRSYCHPIETLVDILQEYPDEIGYIFKPSCVPLMRCGGCCNGAGLECVPTEESNITMQIMRIKPHRGQHIGEMSFLQHNKCECRPKKDGSTSGSGKSSEGKGEVVRFMDVYQRSYCHPIETLVDIFQEYPNEIEYAFKPSCVPLMRCGGCCNNEGLECVPTEESNITMQIMRAKPHQGQHIGEMSFLQHNKCECRPKKD
notes: Chain 1: F36L, E44G, D63G, Q87R; also called scVEGFmE
For B1, the binding result is given as “binds”.
